Assay results as given in the supplement of paper PMC3682954.
Where a name gives a salt, the structure may show the parent alone. ± gives the standard deviation of the averaged measurements. The list shows a part of the results. Single values are uncertain, as repeats are few or missing.

System: RAW 264.7
Experiment: cell viability (MTT) relative to vehicle control; higher = more viable cells
Conditions: stimulus: HMGB1 5 ug/ml, 18 h
[1] = compound concentration: 1 ug/ml

Row | SMILES | cell viability (compound concentration: 3 uM) [%] | cell viability [1] [%]
1 | CCOc1ccccc1OCC1CNCCO1 (stereo unspecified) [Viloxazine hydrochloride] | 103 | –
2 | Nc1ccc(-c2ccc3ccccc3n2)cc1 [BF-170 hydrochloride] | 89.7 | –
3 | O=[N+]([O-])c1ccc2c(c1)S(=O)(=O)C=C2 [Stattic] | 125 | –
4 | CN[C@H](CC(C)C)C(=O)N[C@H]1C(=O)N[C@@H](CC(N)=O)C(=O)N[C@H]2C(=O)N[C@H]3C(=O)N[C@H](C(=O)N[C@H](C(=O)O)c4cc(O)cc(O)c4-c4cc3ccc4O)[C@H](O)c3ccc(c(Cl)c3)Oc3cc2cc(c3O[C@@H]2O[C@H](CO)[C@@H](O)[C@H](O)[C@H]2O[C@H]2C[C@](C)(N)[C@H](O)[C@H](C)O2)Oc2ccc(cc2Cl)[C@H]1O | 108 | –
5 | CN[C@H](CC(C)C)C(=O)N[C@H]1C(=O)N[C@@H](CC(N)=O)C(=O)N[C@H]2C(=O)N[C@H]3C(=O)N[C@H](C(=O)N[C@H](C(=O)O)c4cc(O)cc(O)c4-c4cc3ccc4O)[C@H](O)c3ccc(c(Cl)c3)Oc3cc2cc(c3O[C@@H]2O[C@H](CO)[C@@H](O)[C@H](O)[C@H]2O[C@H]2C[C@](C)(N)[C@H](O)[C@H](C)O2)Oc2ccc(cc2Cl)[C@H]1O [Vancomycin hydrochloride from Streptomyces orientalis] | 114 | –
6 | CN[C@H](CC(C)C)C(=O)N[C@H]1C(=O)N[C@@H](CC(N)=O)C(=O)N[C@H]2C(=O)N[C@H]3C(=O)N[C@H](C(=O)N[C@H](C(=O)O)c4cc(O)cc(O)c4-c4cc3ccc4O)[C@H](O)c3ccc(c(Cl)c3)Oc3cc2cc(c3O[C@@H]2O[C@H](CO)[C@@H](O)[C@H](O)[C@H]2O[C@H]2C[C@](C)(N)[C@H](O)[C@H](C)O2)Oc2ccc(cc2Cl)[C@H]1O [Vancomycin hydrochloride] | 93.7 | –
7 | O=c1c(O)c(-c2ccc(O)c(O)c2)oc2cc(O)ccc12 [Fisetin] | – | 89
8 | CNS(=O)(=O)Cc1ccc2[nH]cc(CCN(C)C)c2c1 [Sumatriptan succinate] | 110 | –
9 | CNS(=O)(=O)Cc1ccc2[nH]cc(CCN(C)C)c2c1 [Sumatriptan Succinate] | 97 | –
10 | CNS(=O)(=O)Cc1ccc2[nH]cc(CCN(C)C)c2c1 | 95 | –
11 | NS(=O)(=O)c1cc2c(cc1Cl)N=CNS2(=O)=O [Chlorothiazide] | 102 ± 4.1 | –
12 | NS(=O)(=O)c1cc2c(cc1Cl)N=CNS2(=O)=O | 112 | –
13 | C=NC(C(=O)NC1C(=O)N2C1SC(C)(C)C2C(=O)O)c1ccccc1 (stereo unspecified) | 111 | –
14 | CC(C)COCC(CN(Cc1ccccc1)c1ccccc1)N1CCCC1 (stereo unspecified) [Bepridil] | 110 | –
15 | CC(C)COCC(CN(Cc1ccccc1)c1ccccc1)N1CCCC1 (stereo unspecified) [Bepridil hydrochloride] | 94.2 ± 3 | –
16 | CC(C)COCC(CN(Cc1ccccc1)c1ccccc1)N1CCCC1 (stereo unspecified) | 100 | –
17 | Cn1c(=O)c2[nH]c(C3CCCC3)nc2n(C)c1=O [8-Cyclopentyl-1,3-dimethylxanthine] | 101 | –
18 | CCOC(=O)[C@H](CCc1ccccc1)N[C@@H](C)C(=O)N1[C@H](C(=O)O)C[C@@H]2CCC[C@@H]21 [Ramipril] | 95.2 ± 3.7 | –
19 | CCOC(=O)[C@H](CCc1ccccc1)N[C@@H](C)C(=O)N1[C@H](C(=O)O)C[C@@H]2CCC[C@@H]21 | 102 ± 4.5 | –
20 | CCOc1ccc2c(c1)C(C)=CC(C)(C)N2 [Ethoxyquin] | 135 | –
21 | NC(=O)c1ncn([C@@H]2O[C@H](CO)[C@@H](O)[C@H]2O)n1 [Ribavirin] | 100 ± 20 | –
22 | NC(=O)c1ncn([C@@H]2O[C@H](CO)[C@@H](O)[C@H]2O)n1 | 104 | –
23 | NS(=O)(=O)c1cc(C(=O)O)c(NCc2ccco2)cc1Cl | 107 | –
24 | NS(=O)(=O)c1cc(C(=O)O)c(NCc2ccco2)cc1Cl [Furosemide] | 98 ± 17 | –
25 | NC(=S)c1ccc[n+]([C@@H]2O[C@@H](COP(=O)([O-])OP(=O)(O)OC[C@H]3O[C@@H](n4cnc5c(N)ncnc54)C(OP(=O)(O)O)[C@H]3O)C(O)C2O)c1 (stereo partly specified) [Thio-NADP sodium] | 113 | –
26 | COc1ccc2oc(-c3ccccc3)c(OC)c(=O)c2c1 | – | 85.6

From no. 24 to 25, as listed above:
Row | SMILES | cell viability (compound concentration: 3 uM) [%] | cell viability [1] [%]
24 | NS(=O)(=O)c1cc(C(=O)O)c(NCc2ccco2)cc1Cl [Furosemide] | 98 ± 17 | –
25 | NC(=S)c1ccc[n+]([C@@H]2O[C@@H](COP(=O)([O-])OP(=O)(O)OC[C@H]3O[C@@H](n4cnc5c(N)ncnc54)C(OP(=O)(O)O)[C@H]3O)C(O)C2O)c1 (stereo partly specified) [Thio-NADP sodium] | 113 | –

Continued:

Row | SMILES | cell viability (compound concentration: 3 uM) [%] | cell viability [1] [%]
27 | O=C(O)c1cc(=O)c2ccccc2o1 | 112 | –
28 | COc1cc(C(=O)NS(=O)(=O)c2ccccc2C)ccc1Cc1cn(C)c2ccc(NC(=O)OC3CCCC3)cc12 | 96.2 | –
29 | COc1cc(C(=O)NS(=O)(=O)c2ccccc2C)ccc1Cc1cn(C)c2ccc(NC(=O)OC3CCCC3)cc12 [Zafirlukast] | 99.6 ± 5 | –
30 | O=c1ccn(C2OC(COc3ccc([N+](=O)[O-])cc3)C(O)C2O)c(=O)[nH]1 (stereo unspecified) | – | 91.9
31 | Cc1cc(C2CCCCC2)n(O)c(=O)c1 [Ciclopirox ethanolamine] | 96.5 | –
32 | Cc1cc(C2CCCCC2)n(O)c(=O)c1 | 108 | –
33 | CN1CCN(C2=Nc3cc(Cl)ccc3Nc3ccccc32)CC1 [Clozapine] | 104 ± 2.4 | –
34 | CN1CCN(C2=Nc3cc(Cl)ccc3Nc3ccccc32)CC1 | 101 | –
35 | CCCCCCCCCCCCCCCC(=O)NCCO [Palmitoylethanolamide] | 102 | –
36 | O=C(O)c1ccccc1Nc1ccccc1 [N-Phenylanthranilic acid] | 110 | –
37 | O=c1cc(-c2cccc(O)c2)oc2cccc(O)c12 | – | 99.3
38 | COc1ccc(-c2coc3cc(OC4OC(CO)C(O)C(O)C4O)cc(O)c3c2=O)cc1 (stereo unspecified) [Sissotrine] | – | 88.9
39 | Brc1ccc([C@H]2CN3CCSC3=N2)cc1 [S(-)-p-Bromotetramisole oxalate] | 106 | –
40 | C=CC[C@H](N)C(=O)O [L-allylglycine] | 106 | –
41 | C[C@@H]1NC(=O)NC1=O [Methylhydantoin-5-(L)] | 91.3 | –
42 | CC1CCc2c(N3CCC(O)CC3)c(F)cc3c(=O)c(C(=O)O)cn1c23 (stereo unspecified) [Nadifloxacin] | 106 ± 14 | –
43 | CCCc1c(OCCCCc2nnn[nH]2)ccc(C(C)=O)c1O | 101 | –
44 | O=c1c(O)c(-c2ccc(O)cc2)oc2ccc(O)cc12 | – | 85.8
45 | Cc1ccc(-c2ncc(Cl)cc2-c2ccc(S(C)(=O)=O)cc2)cn1 [Etoricoxib] | 106 ± 10 | –
46 | N=C1C=CC(=C(c2ccc(N)cc2)c2ccc(N)cc2)C=C1 | 89.1 | –
47 | CC1(C2CCCC2)Cc2cc(OCC(=O)O)c(Cl)c(Cl)c2C1=O (stereo unspecified) | 95.1 | –
48 | O=C(O)c1cc(O)c2c(c1)[C@@H]([C@H]1c3cc(C(=O)O)cc(O)c3C(=O)c3c(O[C@@H]4O[C@H](CO)[C@@H](O)[C@H](O)[C@H]4O)cccc31)c1cccc(O[C@@H]3O[C@H](CO)[C@@H](O)[C@H](O)[C@H]3O)c1C2=O [Sennoside B] | – | 97.5
49 | CO[C@H]1O[C@@H]2O[C@@]3(C)CC[C@H]4[C@H](C)CC[C@@H]([C@H]1C)[C@@]24OO3 | 87.7 | –
50 | N#C/C(=C\c1ccc(O)c(O)c1)C(=O)c1ccc(O)c(O)c1 [Tyrphostin AG 538] | 119 | –
51 | NC12CC3CC(CC(C3)C1)C2 [Adamantamine fumarate] | 123 | –
52 | NC12CC3CC(CC(C3)C1)C2 [Amantadine hydrochloride] | 105 | –

Rewritten as labelled records: entries from further up
Cc1cc(C2CCCCC2)n(O)c(=O)c1
  cell viability (compound concentration: 3 uM) [%]: 108
O=c1c(O)c(-c2ccc(O)cc2)oc2ccc(O)cc12
  cell viability [1] [%]: 85.8

Single records, from the list above.
CN1CCN(C2=Nc3cc(Cl)ccc3Nc3ccccc32)CC1 as listed: cell viability (compound concentration: 3 uM) [%]: 101
COc1ccc(-c2coc3cc(OC4OC(CO)C(O)C(O)C4O)cc(O)c3c2=O)cc1 (stereo unspecified) [Sissotrine] as listed: cell viability [1] [%]: 88.9

Following part

Row | SMILES | cell viability (compound concentration: 3 uM) [%] | cell viability [1] [%]
53 | NC12CC3CC(CC(C3)C1)C2 | 102 | –
54 | CC(=O)[C@H]1CC[C@H]2[C@@H]3CC=C4C[C@@H](OS(=O)(=O)O)CC[C@]4(C)[C@H]3CC[C@]12C [Pregnenolone sulfate sodium] | 106 | –
55 | Cc1cc(=O)n(-c2ccccc2)n1C [Antipyrine] | 97.7 | –
56 | Cc1cc(=O)n(-c2ccccc2)n1C | 100 | –
57 | NCC=CC(=O)O (stereo in doubt) [cis-4-Aminocrotonic acid] | 111 | –
58 | Clc1ccc(COC(Cn2ccnc2)c2ccc(Cl)cc2Cl)c(Cl)c1 (stereo unspecified) [Miconazole] | 98 ± 9.8 | –
59 | Clc1ccc(COC(Cn2ccnc2)c2ccc(Cl)cc2Cl)c(Cl)c1 (stereo unspecified) | 108 | –
60 | NCCCCNCCCN [Spermidine trihydrochloride] | 122 | –
61 | CC(C)(C(=O)c1cccnc1)c1cccnc1 [Metyrapone] | 94.9 | –
62 | O=c1cc(-c2ccc(O)c(O)c2)oc2cc(O)cc(O)c12 [Luteolin] | 86.6 | –
63 | CCOC(=O)[C@]12CC1/C(=N\O)c1ccccc1O2 (stereo partly specified) | 102 | –
64 | CCN[C@H]1C[C@H](C)S(=O)(=O)c2sc(S(N)(=O)=O)cc21 [Dorzolamide hydrochloride] | 101 | –
65 | CCN[C@H]1C[C@H](C)S(=O)(=O)c2sc(S(N)(=O)=O)cc21 [Dorzolamide] | 107 | –
66 | CC(C)/N=c1\cc2n(-c3ccc(Cl)cc3)c3ccccc3nc-2cc1Nc1ccc(Cl)cc1 | 95.6 ± 4 | –
67 | CC(C)/N=c1\cc2n(-c3ccc(Cl)cc3)c3ccccc3nc-2cc1Nc1ccc(Cl)cc1 [Clofazimine] | 75.7 | –
68 | O=C1Cc2cc(CCN3CCN(c4nsc5ccccc45)CC3)c(Cl)cc2N1 [Ziprasidone  Hydrochloride] | 113 | –
69 | O=C1Cc2cc(CCN3CCN(c4nsc5ccccc45)CC3)c(Cl)cc2N1 [Ziprasidone hydrochloride monohydrate] | 108 | –
70 | CC(=O)N(O)CCCCCNC(=O)CCC(=O)N(O)CCCCCNC(=O)CCC(=O)N(O)CCCCCN | 97.7 | –
71 | CC(=O)N(O)CCCCCNC(=O)CCC(=O)N(O)CCCCCNC(=O)CCC(=O)N(O)CCCCCN [Deferoxamine mesylate] | 120 | –
72 | O=S(=O)(c1cccc2cnccc12)N1CCNCC1 | 102 | –
73 | NC(Cc1cccc(-c2ccccc2CP(=O)(O)O)c1)C(=O)O (stereo not drawn) [Phenylbenzene-omega-phosphono-alpha-amino acid] | 97.6 | –
74 | N[C@H](CO)C(=O)O [D-Serine] | 117 | –
75 | CC(C)NC[C@H](O)COc1ccc(CC(N)=O)cc1 [(S)-(-)-Atenolol] | 76.7 | –
76 | CC(C)NC[C@H](O)COc1ccc(CC(N)=O)cc1 [S(-)-Atenolol] | 94.8 | –
